Laboratory results: patent US11130724B2, “Compound, resin, composition, resist pattern formation method, and circuit pattern formation method” (Mitsubishi Gas Chemical Company, Inc., priority 2015, dated 2021)

test: Etching test / evaluation of etching resistance of underlayer film versus underlayer film of novolac; conditions: underlayer film 200 nm (10 parts material, PGMEA 90, DTDPI 0.5, Nikalac 0.5), baked 240° C. 60 s and 400° C. 120 s; Ar:CF4:O2 = 50:5:5 sccm, 50 W, 20 Pa, 2 min; etching rate relative to novolac PSM4357 film

| Compound | Etching resistance evaluation |
| --- | --- |
| CC(c1ccc(C2CCCCC2)cc1)(c1c(O)ccc2cc(O)ccc12)c1c(O)ccc2cc(O)ccc12 [BiN-4] | A (The etching rate was less than −15% to −10% as compared with the underlayer film of novolac.) |
| CC(c1ccc(C2CCCCC2)cc1)(c1ccc(O)c(-c2ccccc2O)c1)c1ccc(O)c(-c2ccccc2O)c1 [BiP-4] | S (The etching rate was less than −15% as compared with the underlayer film of novolac.) |
| CC1(c2ccc(C3CCCCC3)cc2)c2c(ccc3cc(O)ccc23)Oc2ccc3cc(O)ccc3c21 [XBiN-3] | S (The etching rate was less than −15% as compared with the underlayer film of novolac.) |
| CC1(c2ccc(C3CCCCC3)cc2)c2ccc(O)cc2Oc2cc(O)ccc21 [P-4] | B (The etching rate was −10% to +5% as compared with the underlayer film of novolac.) |
| CC(c1ccc(O)cc1)(c1ccc(O)cc1)c1ccc(C2CCCCC2)cc1 [P-2] | A (The etching rate was less than −15% to −10% as compared with the underlayer film of novolac.) |
| CC1(c2ccc(-c3ccccc3)cc2)c2ccc(O)cc2Oc2cc(O)ccc21 [P-3] | B (The etching rate was −10% to +5% as compared with the underlayer film of novolac.) |
| CC(c1ccc(-c2ccccc2)cc1)(c1c(O)ccc2cc(O)ccc12)c1c(O)ccc2cc(O)ccc12 [BiN-2] | A (The etching rate was less than −15% to −10% as compared with the underlayer film of novolac.) |
| CC(c1ccc(O)cc1)(c1ccc(O)cc1)c1ccc(-c2ccccc2)cc1 [P-1] | A (The etching rate was less than −15% to −10% as compared with the underlayer film of novolac.) |
| CC(c1ccc(-c2ccccc2)cc1)(c1c(O)ccc2ccccc12)c1c(O)ccc2ccccc12 [BiN-1] | A (The etching rate was less than −15% to −10% as compared with the underlayer film of novolac.) |
| CC(c1ccc(-c2ccccc2)cc1)(c1c(O)ccc2ccc(O)cc12)c1c(O)ccc2ccc(O)cc12 [BiN-3] | A (The etching rate was less than −15% to −10% as compared with the underlayer film of novolac.) |
| CC(c1ccc(-c2ccccc2)cc1)(c1cc(-c2ccc(O)cc2)ccc1O)c1cc(-c2ccc(O)cc2)ccc1O [BiP-2] | A (The etching rate was less than −15% to −10% as compared with the underlayer film of novolac.) |
| CC(c1ccc(-c2ccccc2)cc1)(c1ccc(O)c(-c2ccccc2)c1)c1ccc(O)c(-c2ccccc2)c1 [BiP-1] | A (The etching rate was less than −15% to −10% as compared with the underlayer film of novolac.) |
| CC(c1ccc(-c2ccccc2)cc1)(c1ccc(O)c(-c2ccccc2O)c1)c1ccc(O)c(-c2ccccc2O)c1 [BiP-3] | S (The etching rate was less than −15% as compared with the underlayer film of novolac.) |
| CC1(c2ccc(-c3ccccc3)cc2)c2c(ccc3ccc(O)cc23)Oc2ccc3ccc(O)cc3c21 [XBiN-2] | S (The etching rate was less than −15% as compared with the underlayer film of novolac.) |
| CC1(c2ccc(-c3ccccc3)cc2)c2c(ccc3cc(O)ccc23)Oc2ccc3cc(O)ccc3c21 [XBiN-1] | S (The etching rate was less than −15% as compared with the underlayer film of novolac.) |
